# Screening data, single-dose tests

Protein sequences, listed by entry. Tags and fused reporters are not part of them. Residues count along the entry.
UniProt P9WPC5, whole entry: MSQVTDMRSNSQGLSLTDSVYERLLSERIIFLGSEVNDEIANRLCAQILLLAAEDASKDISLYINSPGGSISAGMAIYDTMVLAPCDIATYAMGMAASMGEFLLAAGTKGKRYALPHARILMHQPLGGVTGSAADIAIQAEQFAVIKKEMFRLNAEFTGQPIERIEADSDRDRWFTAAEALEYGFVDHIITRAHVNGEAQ
UniProt P9WPC3, whole entry partner: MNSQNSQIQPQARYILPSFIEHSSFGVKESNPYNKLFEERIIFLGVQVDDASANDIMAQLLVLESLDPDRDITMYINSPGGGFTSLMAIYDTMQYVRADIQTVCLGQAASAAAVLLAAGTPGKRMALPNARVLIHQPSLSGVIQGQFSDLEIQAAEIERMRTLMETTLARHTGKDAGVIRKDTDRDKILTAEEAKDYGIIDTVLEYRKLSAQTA
UniProt P9WFT3, whole entry: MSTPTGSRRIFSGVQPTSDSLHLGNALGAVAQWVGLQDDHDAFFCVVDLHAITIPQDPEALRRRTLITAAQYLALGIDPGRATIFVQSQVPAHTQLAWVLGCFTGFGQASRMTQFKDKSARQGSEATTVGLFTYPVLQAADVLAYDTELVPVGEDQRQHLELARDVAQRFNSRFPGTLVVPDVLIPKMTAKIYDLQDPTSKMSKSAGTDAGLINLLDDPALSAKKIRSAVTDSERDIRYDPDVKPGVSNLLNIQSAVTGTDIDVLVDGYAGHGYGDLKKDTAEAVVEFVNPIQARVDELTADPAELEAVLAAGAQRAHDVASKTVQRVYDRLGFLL
UniProt Q8IDJ8, 1-583: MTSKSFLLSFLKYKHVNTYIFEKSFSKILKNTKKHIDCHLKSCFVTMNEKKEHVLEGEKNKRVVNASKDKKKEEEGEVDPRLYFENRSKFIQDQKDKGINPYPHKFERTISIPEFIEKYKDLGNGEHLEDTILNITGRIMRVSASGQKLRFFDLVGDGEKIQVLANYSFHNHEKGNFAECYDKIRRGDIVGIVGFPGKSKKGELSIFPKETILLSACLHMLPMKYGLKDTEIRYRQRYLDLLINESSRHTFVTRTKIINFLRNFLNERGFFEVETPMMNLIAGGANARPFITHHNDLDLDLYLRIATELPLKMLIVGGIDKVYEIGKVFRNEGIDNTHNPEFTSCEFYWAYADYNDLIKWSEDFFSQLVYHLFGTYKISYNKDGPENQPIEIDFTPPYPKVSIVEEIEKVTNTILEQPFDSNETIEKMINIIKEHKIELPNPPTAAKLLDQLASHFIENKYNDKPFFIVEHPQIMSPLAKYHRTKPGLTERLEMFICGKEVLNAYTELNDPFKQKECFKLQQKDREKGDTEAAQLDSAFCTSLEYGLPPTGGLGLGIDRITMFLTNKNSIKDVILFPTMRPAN

From ChEMBL document CHEMBL3988442, “University of Dundee, Small-Polar-MMV Screening Library” (2021).

ClpP1P2: 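Protease assay of ClpP1P2, read by the AMC dye that it sets free. Target: ClpP1P2, Mycobacterium tuberculosis (UniProt P9WPC5 and UniProt P9WPC3). Concentration: 50 µM. Higher reads as stronger inhibition, judged from the few compounds that gave an IC50. Most other retested compounds had strongly negative values. Of about 69,000 compounds tested this way, about 10 (0.015%) reached 50% or more in at least one test.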
MtTrpRS: 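Tryptophan-tRNA ligase, Mycobacterium tuberculosis (UniProt P9WFT3). Enzyme assay of tryptophanyl-tRNA synthetase; the read-out is not stated. Concentration: 10 µM. Direction is not recorded; retested compounds ran higher, which suggests that high means inhibition. About 65,000 compounds were tested under these conditions; 0.098% (about 64) showed 50% or more at least once.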
PfKRS1: 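Enzyme assay of the cytosolic lysyl-tRNA synthetase in 384-well plates, read by luminescence. Target: Lysine-tRNA ligase, Plasmodium falciparum 3D7 (UniProt Q8IDJ8). Tested at 30 µM. Direction is inferred from only a few compounds that gave an IC50; most scored high, so higher reads as stronger inhibition. Of about 69,000 compounds tested this way, about 49 (0.071%) reached 50% or more in at least one test.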

Values are the deposited “Percent Effect”, in %.
The controls that fix the scale are not given in the record; negative values are as filed.
Compounds were drawn at random from those tested, without regard to their results.

* Cn1cc(CN2C[C@H]3CCC[C@@]3(COc3cccnc3)C2)cn1 | ClpP1P2: -5.416%; PfKRS1: 6.278%
* CC(=O)N1CCC(c2cnc(-c3c(C)nn(C)c3C)cn2)CC1 | ClpP1P2: -11.78%; PfKRS1: 2.289%
* Cc1nc(CN2C(=O)CC[C@@H]3[C@H]2CCN3C(=O)NC2CC2)cs1 | ClpP1P2: 5.146%; MtTrpRS: 0.4359%; PfKRS1: -1.642%
* COCCCN1CC2(CCC1=O)CCN(Cc1cc(C)no1)CC2 | ClpP1P2: 11.44%; MtTrpRS: 0.7971%; PfKRS1: 3.714%
* CN(Cc1cc(Br)cn1C)C(=O)c1ccon1 | ClpP1P2: -10.58%; MtTrpRS: 0.6606%; PfKRS1: 2.087%
* CN(C)C(=O)COCc1cncc2c1CCN(Cc1ccccc1)C2 | ClpP1P2: -6.392%; MtTrpRS: 1.205%; PfKRS1: 3.47%
* CCOCC1CN(Cc2cc(C)on2)Cc2cn(C)nc21 (stereo not shown) | ClpP1P2: -31.54%; MtTrpRS: 8.643%; PfKRS1: 2.567%
* Cc1nc(S(=O)(=O)N2CCc3[nH]nc(CCC(C)C)c3C2)cn1C | ClpP1P2: -9.692%; MtTrpRS: 3.694%; PfKRS1: -3.875%
* CCSc1ccc(C(=O)N2CCCC2C(=O)N2CCOCC2)cn1 (stereo not shown) | ClpP1P2: -9.113%; MtTrpRS: 0.8223%; PfKRS1: -0.4322%
* Cc1nn(C)c2ncnc(N3CCCC(OCc4ccccn4)C3)c12 (stereo not shown) | ClpP1P2: -4.147%; MtTrpRS: 3.191%; PfKRS1: 2.436%
* CSCC(CCO)NC(=O)Nc1cccc(Br)c1 (stereo not shown) | ClpP1P2: -1.994%; MtTrpRS: 1.782%; PfKRS1: 3.721%
* CC(C)OCCCNC(=O)[C@@]12CNC[C@@H]1CN(S(C)(=O)=O)C2 | ClpP1P2: -4.674%; MtTrpRS: 0.3018%; PfKRS1: -3.02%
* c1nc2n(c1CN1CCCCC1)CCN(C1CCOC1)CC2 (stereo not shown) | ClpP1P2: -15.48%; MtTrpRS: -6.268%; PfKRS1: 5.052%
* CS(=O)(=O)CCN(Cc1cccc(O)c1)C1CCC(O)CC1 (stereo not shown) | ClpP1P2: -11.43%; MtTrpRS: -6.495%; PfKRS1: 3.225%
* CCCN1CCN(C(=O)c2cccnc2-n2cncn2)CC1 | ClpP1P2: -10.36%; MtTrpRS: -4.145%; PfKRS1: 9.111%
* Cn1cc(C(=O)CC2CCCN2C(=O)c2ccc3[nH]ncc3c2)cn1 (stereo not shown) | ClpP1P2: -9.847%; MtTrpRS: 3.841%; PfKRS1: -6.505%
* O=C(Nc1cnn(-c2ccccc2Cl)c1)NC1CCC(O)CC1 (stereo not shown) | ClpP1P2: 5.35%; MtTrpRS: 0.7897%; PfKRS1: -5.708%
* COc1ccc(S(=O)(=O)NCC(O)c2sccc2C)cc1Cl (stereo not shown) | ClpP1P2: -2.848%; MtTrpRS: 2.052%; PfKRS1: 3.293%
* Fc1cccc(CN2CCO[C@H]3[C@@H](OCc4ccccn4)CC[C@@H]32)c1 | ClpP1P2: 4.074%; MtTrpRS: -3.931%; PfKRS1: 4.227%
* CCn1ncc2[nH]c(-c3cc4c(cc3OC)OCO4)nc21 | ClpP1P2: -9.48%; MtTrpRS: 0.9762%; PfKRS1: 4.17%
* CCOc1ncc(NC(=O)c2ccccn2)c(OCC)n1 | ClpP1P2: 3.24%; MtTrpRS: -3.267%; PfKRS1: 5.127%
* O=C(c1ccccc1Cl)N1CCN(CCc2ccccn2)CC1 | ClpP1P2: 6.501%; MtTrpRS: 0.2045%; PfKRS1: 8.114%
* N#Cc1cccc(N2CCCC3(CN(C(=O)NC4CC4)CCO3)C2)c1 (stereo not shown) | ClpP1P2: 2.566%; MtTrpRS: -4.302%; PfKRS1: 1.469%
* Cc1nc(-c2ccco2)ccc1C(=O)N1CCc2nnc(N)cc2C1 | ClpP1P2: -1.304%; MtTrpRS: -4.262%; PfKRS1: 8.474%
* Cc1cc(C(=O)N2CC[C@@H]3CN(S(C)(=O)=O)CCO[C@@H]3C2)c(C)o1 | ClpP1P2: 8.171%; MtTrpRS: 0.7846%; PfKRS1: 6.532%
* CNS(=O)(=O)CC(=O)N1CC2(CCCC2)c2c(F)cccc21 | ClpP1P2: -4.997%; MtTrpRS: -3.715%; PfKRS1: 2.385%
* CCN(C)c1ncnc2c1CCN(C(=O)COC)CC2 | ClpP1P2: -4.836%; MtTrpRS: 0.241%; PfKRS1: 4.843%
* Cn1nc(C(=O)N2CCOCC2)c2c1CN(CC1CC1)C2 | ClpP1P2: -5.029%; PfKRS1: 4.242%
* Cc1ccc(C2CN(Cc3cccc4[nH]ccc34)CCO2)nc1 (stereo not shown) | ClpP1P2: -3.426%; MtTrpRS: 41.57%; PfKRS1: -0.8053%
* CS(=O)(=O)N1CCC(O)(Cn2c(C3CC3)nc3ccccc3c2=O)CC1 | ClpP1P2: 1.258%; MtTrpRS: -3.428%; PfKRS1: 0.4593%
* CCS(=O)(=O)Cc1ccn(-c2cccc(F)c2)n1 | ClpP1P2: -8.901%; MtTrpRS: -4.283%; PfKRS1: 5.022%
* COc1cc(C(C)NCc2scnc2C)ccc1SC(F)F (stereo not shown) | ClpP1P2: -13.57%; MtTrpRS: -0.5482%; PfKRS1: -2.288%
* Cc1noc(C)c1CN1CCN(Cc2nccn2C)CC1 | ClpP1P2: -1.982%; MtTrpRS: 3.294%; PfKRS1: 5.276%